Results published in PubChem BioAssay AID2417 (National Center for Advancing Translational Sciences (NCATS), 2010).
In all, about 140,000 compounds went through this assay and about 4,300 (3.1%) were called active. This list was built around the results that the source calls inconclusive (neither active nor inactive); the mix of calls is not that of the screen.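 The calls were made as follows: active = readout at or below -70, meaning at least 70% loss of cells showing the perinucleolar compartment, a nuclear body marking cancer cells; inconclusive = readout between -30 and a set limit; inactive = the rest.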

assay: High Content Assay for Compounds that inhibit the Assembly of the Perinucleolar Compartment; conditions: PC3M PTB-GFP, PNC prevalence imaging, 16 h; at 10 µM; active compounds read low;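 also: plate controls were DMSO wells for no effect and camptothecin positive control wells for full effect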
Summary of the method: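 PC3M cells stably expressing PTB-GFP, 750–1000 cells/well, treated 16 h at 37 °C with compound (23 nl of library stock), in duplicate. After paraformaldehyde fixation and Hoechst stain, imaged at 20x; PNC prevalence scored by image analysis.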

Row | SMILES | activity change (PNC), negative = inhibition
1 | CCOC(=O)C1CCCN(C(=O)Cn2cnc3c2c(=O)n(C)c(=O)n3C)C1 (stereo not drawn) | inactive: -15.4%
2 | CCOC(=O)/C=C1\NC(C)(C)Cc2cc(OC)c(O)cc21 | inconclusive: -55.7%
3 | Cc1nc2ccccc2c2c1C(=O)N(C1CCCCCCC1)C2=O | inconclusive: -35.2%
4 | COc1ccc(C2C(C#N)=C(SC)NC3=C2C(=O)CC(C)(C)C3)cc1 (stereo not drawn) | inconclusive: -72.7%
5 | CCNC(=O)C(=O)NCC1OCCCN1S(=O)(=O)c1cccs1 (stereo not drawn) | inactive: -4.34%
6 | Cc1ccc(S(=O)(=O)Nn2c(C)ccc2C)cc1 | inconclusive: -42.7%
7 | O=C(CSc1nnc(CNc2ccc(F)cc2)n1-c1ccccc1)N1CCOCC1 | inconclusive: -31.3%
8 | Cc1ccc(S(=O)(=O)CNC(=S)c2cccc(Cl)c2)cc1 | inconclusive: -36.3%
9 | O=C1NC2(CCCCC2)NN1c1ccccc1 | inactive: 5.03%
10 | CCCOc1cc(C)c(S(=O)(=O)N2CCN(C)CC2)cc1C | inconclusive: -33.7%
11 | Cc1cc(C(C)(C)C)cc(S(=O)(=O)NCCO)c1C | inconclusive: -52.7%
12 | CCC(C)NC(=O)c1ccc(CSCc2cccc(F)c2)o1 (stereo not drawn) | inactive: -20.7%
13 | O=C(NNC(=O)c1cccs1)Nc1cccc(Cl)c1 | inactive: 13.7%
14 | COc1ccc(-c2oc(NC(=O)c3ccc(C)cc3)c(C#N)c2-c2ccc(OC)cc2)cc1 | inactive: -8.42%
15 | Cc1c(C(=O)Nc2ccc3c(c2)OCO3)sc2ncn(CC(=O)N3CC(C)CC(C)C3)c(=O)c12 (stereo not drawn) | inactive: 0.82%
16 | COCCNCCCCOc1ccc(C)cc1[N+](=O)[O-] | inconclusive: -44.9%
17 | O=C(Nc1ccc2snnc2c1)N1CCSCC1 | inconclusive: -42%
18 | Cc1nn(CCc2n[nH]c(=S)n2C2CCCCC2)c(C)c1Br | inactive: -24.2%
19 | CCCCCCCNC(=O)c1ccc(N2CCC3(CC2)OCCO3)c([N+](=O)[O-])c1 | active: -119%
20 | CCOC(=O)c1cc2c(nc1NC(=S)Nc1ccccc1)CC(C)(C)OC2 | active: -81.9%
21 | CCOC(=O)c1[nH]c(C)c(/C=N/O)c1C | active: -115%
22 | Cc1c(C)n(C(=O)CN2CCN(c3ccccc3)CC2)c2ccccc12 | inconclusive: -37.7%
23 | O=C(NC1=NCCS1)c1cc(-c2cccc(Br)c2)nc2ccccc12 | inconclusive: -32.3%
24 | Cc1ccc(N=Cc2sc(O)c3ccccc23)c(C)c1 | inactive: -15.3%

Row | SMILES | activity change (PNC), negative = inhibition
25 | COc1ccc(C)cc1NC(=O)C(NCC1CCCO1)c1ccccc1 (stereo not drawn) | inactive: -16.7%
26 | O=C1Nc2cc(Cl)ccc2C1(N1CCNCC1)C(F)(F)F (stereo not drawn) | inconclusive: -48.4%
27 | CCCCCCNCC1OCc2ccccc2CO1 | inconclusive: -62.2%
28 | COc1ccc(Cn2cnc3sccc3c2=O)cc1 | inactive: 45.3%
29 | Cc1ccc(-c2nc(N=Nc3ccc(O)cc3)n[nH]2)cc1 | inconclusive: -53.1%
30 | CC1C(=O)C(C)C(c2cccs2)NC1c1cccs1 (stereo not drawn) | inconclusive: -57.4%
31 | COC(=O)c1ccc(NC(=O)c2ccc(CN3CCOCC3)cc2)cc1 | inconclusive: -49.7%
32 | COc1ccc(NC(=O)C2CCN(S(C)(=O)=O)CC2)cc1 | inconclusive: -59.4%
33 | CCC(C)(C)n1nnnc1C(c1ccc(OC)c(OC)c1)N1CCN(c2cccc(OC)c2)CC1 (stereo not drawn) | inconclusive: -38.4%
34 | O=C1CSC(c2ccccn2)N1c1ccccc1 (stereo not drawn) | inconclusive: -35.5%
35 | COc1ccc(-c2cc(C(F)(F)F)n3ncc(C(=O)NCC4CCCO4)c3n2)cc1 (stereo not drawn) | inconclusive: -77.4%
36 | COCCCN1C(=O)c2[nH]nc(-c3ccccc3O)c2C1c1cccc(Cl)c1 (stereo not drawn) | inconclusive: -64.1%
37 | Fc1ccc(CN2CCCCCCC2)cc1F | inconclusive: -40.4%
38 | Cc1ccc(Cc2nc(-c3cccnc3)no2)cc1 | inactive: -27.2%
39 | COc1ccc(-n2c(SCC(=O)c3ccc[nH]3)nnc2-c2ccccc2)cc1 | inconclusive: -77.8%
40 | COCCNC(C(=O)Nc1ccc([N+](=O)[O-])cc1Br)c1ccccc1 (stereo not drawn) | inactive: -7.18%
41 | COc1cc(C2CC(=O)C=C(O)C2)cc(OC)c1OC (stereo not drawn) | inconclusive: -38.8%
42 | CCCC(C(=O)N1CCOCC1)N1C(=O)C2C3C=CC(C3)C2C1=O (stereo not drawn) | inconclusive: -34%
43 | COc1ccc(C(CNC(=O)c2ccc(N3CCCC3=O)cc2)N(C)C)cc1 (stereo not drawn) | inconclusive: -42.2%
44 | CCn1c(=N)n(CC(O)COc2cccc(C)c2)c2ccccc21 (stereo not drawn) | inconclusive: -61.1%
45 | O=C(CSc1nnc(-c2cccs2)o1)N1CCc2ccccc21 | inconclusive: -73.2%
46 | CN(C)c1ccc(/C=N/NC(=O)Cn2nnc3ccccc32)cc1 | inconclusive: -38.4%
47 | COC(=O)C1=C(C)NC(=O)/C1=C\c1cc(C)n(-c2cc(C)cc(C)c2)c1C | inactive: 14.3%
48 | CCOC(=O)c1[nH]c(C)c(C(=O)N(C)C)c1C | inconclusive: -47.6%

Row | SMILES | activity change (PNC), negative = inhibition
49 | O=C(CSc1nnc(-c2ccc(S(=O)(=O)N3CCCC3)cc2)n1CC1CCCO1)NC1CC1 (stereo not drawn) | inconclusive: -30.7%
50 | C=CCn1c(COc2ccccc2)nnc1SCC(=O)N/N=C/c1ccc(C)cc1 | inactive: 5.9%
51 | C/C=C/c1ccc(OCCCCOc2c(OC)cccc2OC)c(OC)c1 | inactive: 43%
52 | Cc1ccccc1NS(=O)(=O)c1cc(C(=O)N2CCCC2)ccc1C | inconclusive: -55.3%
53 | COc1ccc2c(C)c(C(=O)O)oc2c1 | inconclusive: -68.4%
54 | CC(C)(C)C1CCc2nc(NC(=O)Cc3cn4ccsc4n3)sc2C1 (stereo not drawn) | inconclusive: -36.6%
55 | Cc1cn(-c2ccc(Br)cc2)[nH]c1=O | inconclusive: -75.8%
56 | CC1CCCCC1N1CCN(C(=O)c2cccc(F)c2)CC1 (stereo not drawn) | inconclusive: -62.3%
57 | CC(C)N(C(=O)NC(=O)Nc1ccccn1)S(C)(=O)=O | inconclusive: -34.4%
58 | C/C(=N\NC(=S)NCc1ccccc1)c1ccccc1 | inactive: -2.3%
59 | Cc1ccc(N(CC(=O)Nc2ccccc2-c2ccccc2)S(=O)(=O)c2ccccc2)c(C)c1 | inactive: 8.58%
60 | CC1CC(C)CN(CCOCCSc2ccccc2)C1 (stereo not drawn) | inconclusive: -48.5%
61 | C=CCn1c(SCC(=O)Nc2cc(C)c(Cl)cc2OC)nnc1-c1ccco1 | inconclusive: -30.1%
62 | COc1cc(OC)nc(Oc2ccccc2C(=O)Oc2ccc(C)cc2)n1 | inconclusive: -48.1%
63 | Cc1cc(Nc2ccccc2)c2c([N+](=O)[O-])ccc(C)c2n1 | inconclusive: -45.1%
64 | COC1(OC)N=C(N)C2(C#N)C(c3cccc(Oc4ccccc4)c3)C12C#N (stereo not drawn) | inactive: 35.7%
65 | O=c1oc2ccccc2n1Cn1c(=O)oc2ccccc21 | inconclusive: -36.4%
66 | CCOC(=O)c1ccccc1NC(=O)c1n[nH]c(=O)c2ccccc12 | inconclusive: -60%
67 | CN(CC(=O)NC1CCCCCCC1)S(=O)(=O)c1cccc2cccnc12 | inconclusive: -37.4%
68 | O=C(CCC(=O)OCC(=O)c1ccc(F)cc1)NC1CCCCC1 | inconclusive: -42%
69 | O=C1CC(C(=O)Nc2ccc(C(=O)O)cc2)C(c2ccccc2)O1 (stereo not drawn) | inconclusive: -38.8%
70 | O=C(CN1C(=O)S/C(=C\c2ccc(Cl)cc2)C1=O)NNC(=O)c1ccccc1O | inactive: 26.4%
71 | Cc1ccccc1N(CC(=O)N/N=C/c1ccc(N(C)C)cc1)C(=O)c1ccccc1 | inconclusive: -52.5%
72 | CCCC(C(=O)Nc1nccs1)c1ccccc1 (stereo not drawn) | inactive: 33.6%

Quoted from the listing.
Value of Cc1ccc(Cc2nc(-c3cccnc3)no2)cc1 under activity change (PNC), negative = inhibition: inactive: -27.2%
Value of CCC(C)NC(=O)c1ccc(CSCc2cccc(F)c2)o1 (stereo not drawn) under activity change (PNC), negative = inhibition: inactive: -20.7%
Value of COc1ccc(C2C(C#N)=C(SC)NC3=C2C(=O)CC(C)(C)C3)cc1 (stereo not drawn) under activity change (PNC), negative = inhibition: inconclusive: -72.7%
Value of CCOC(=O)c1[nH]c(C)c(C(=O)N(C)C)c1C under activity change (PNC), negative = inhibition: inconclusive: -47.6%

The listing continues.

Row | SMILES | activity change (PNC), negative = inhibition
73 | Cc1ccc(C(=O)Nc2cc(C(C)C)c(O)c(C(C)C)c2)cc1 | inactive: 37.3%
74 | O=C(NCCN1CCOCC1)c1noc2c1CCc1ccccc1-2 | inconclusive: -35.2%
75 | CCC(C)NC(=O)CSC1=Nc2ccccc2C2=NC(c3ccccc3)C(=O)N12 (stereo not drawn) | inactive: 0.0407%
76 | CCCc1[nH]nc2c1C(/C(C)=C/c1ccccc1)C(C#N)=C(N)O2 (stereo not drawn) | inconclusive: -41.6%
77 | CCCn1nnnc1SCC(=O)Nc1cccc(NC(=O)c2ccco2)c1 | inconclusive: -35.7%
78 | O=C(OCc1nnc(-c2ccccc2)o1)c1cc(S(=O)(=O)N2CCOCC2)c(Cl)cc1Cl | inconclusive: -45%
79 | O=C(COc1ccccc1)NCCc1nc2ccccc2[nH]1 | inconclusive: -32.9%
80 | Cc1cc2ncn(S(=O)(=O)N3CCOCC3)c2cc1C | inconclusive: -55.6%
81 | CCOC(=O)c1c(NC(=O)c2ccoc2C)sc2c1CCC2 | inactive: 24.6%
82 | O=C(c1cn[nH]c1)c1cc(F)ccc1O | inactive: -6.86%
83 | CCN(CC)c1nc2n(c(=S)n1)CCS2 | active: -88.1%
84 | Cc1ccccc1Nc1nn2c(=O)c3ccccc3nc2s1 | inconclusive: -34.7%
85 | O=C(CNC(=O)c1ccccc1Cl)Nc1ccc(F)cc1 | inconclusive: -52%
86 | NC(=O)C1(N2CCCCC2)CCN(CC(=O)Nc2ccccc2-c2ccccc2)CC1 | inconclusive: -55.6%
87 | Cc1sc2nc(CN3CCOCC3)[nH]c(=O)c2c1-c1ccccc1 | active: -110%
88 | O=C(NC1CCCCC1NC(=O)c1ccco1)c1ccco1 (stereo not drawn) | active: -84.9%
89 | CCOc1ccccc1NC(=S)N1C2CCC1CC(NC(=O)NC13CC4CC(CC(C4)C1)C3)C2 (stereo not drawn) | inconclusive: -39.8%
90 | CCOC(=O)CC(=O)CSc1nc2sc(C)cc2c(=O)n1Cc1ccco1 | inactive: -13%
91 | CCOc1ccc(NC2=NCCC(=O)N2Cc2cccs2)cc1 | inconclusive: -63%
92 | CC(NC(=O)C1CCCN(S(=O)(=O)c2cnc[nH]2)C1)c1ccccc1 (stereo not drawn) | active: -81.3%
93 | CC(C)(C)c1ccc(CN(Cc2ccco2)Cc2nnnn2C2CCCC2)cc1 | inconclusive: -32.4%
